In this experiment the target is T1, Recombinant tissue transglutaminase (tG) (human), P21980.
T1 chain: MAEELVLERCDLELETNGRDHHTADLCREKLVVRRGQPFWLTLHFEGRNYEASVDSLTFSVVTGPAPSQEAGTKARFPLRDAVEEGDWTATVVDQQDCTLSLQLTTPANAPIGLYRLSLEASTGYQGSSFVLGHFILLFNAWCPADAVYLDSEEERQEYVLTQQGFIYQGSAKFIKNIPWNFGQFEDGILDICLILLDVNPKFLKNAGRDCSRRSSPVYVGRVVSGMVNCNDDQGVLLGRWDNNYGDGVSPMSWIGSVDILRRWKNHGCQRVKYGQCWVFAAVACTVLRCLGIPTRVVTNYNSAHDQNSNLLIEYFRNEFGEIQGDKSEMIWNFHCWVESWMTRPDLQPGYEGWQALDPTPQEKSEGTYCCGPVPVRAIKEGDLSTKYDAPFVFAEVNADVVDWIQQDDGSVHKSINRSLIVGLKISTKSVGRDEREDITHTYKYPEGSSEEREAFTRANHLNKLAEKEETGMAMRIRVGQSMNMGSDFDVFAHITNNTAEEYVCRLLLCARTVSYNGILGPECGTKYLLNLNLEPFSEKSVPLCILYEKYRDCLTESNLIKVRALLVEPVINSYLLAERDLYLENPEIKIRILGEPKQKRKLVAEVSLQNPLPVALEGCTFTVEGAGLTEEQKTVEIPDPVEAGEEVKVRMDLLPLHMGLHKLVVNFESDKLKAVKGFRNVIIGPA
As to the kind of experiment: static (equilibrium) SAXS; tG incubated with Ca2+ for 5 min (fast-load) or 30 min (slow-load); home source (BioXolver); both purified. The conditions noted are these: remark: other sources report otherwise.

No constants are given. Whether binding was seen depends on the method and setting. Some binding calls cover weakened binding; strength is not graded here.

B1: Recombinant tissue transglutaminase (tG), P21980 1-687 (enzyme)
chain: MAEELVLERCDLELETNGRDHHTADLCREKLVVRRGQPFWLTLHFEGRNYEASVDSLTFSVVTGPAPSQEAGTKARFPLRDAVEEGDWTATVVDQQDCTLSLQLTTPANAPIGLYRLSLEASTGYQGSSFVLGHFILLFNAWCPADAVYLDSEEERQEYVLTQQGFIYQGSAKFIKNIPWNFGQFEDGILDICLILLDVNPKFLKNAGRDCSRRSSPVYVGRVVSGMVNCNDDQGVLLGRWDNNYGDGVSPMSWIGSVDILRRWKNHGCQRVKYGQCWVFAAVACTVLRCLGIPTRVVTNYNSAHDQNSNLLIEYFRNEFGEIQGDKSEMIWNFHCWVESWMTRPDLQPGYEGWQALDPTPQEKSEGTYCCGPVPVRAIKEGDLSTKYDAPFVFAEVNADVVDWIQQDDGSVHKSINRSLIVGLKISTKSVGRDEREDITHTYKYPEGSSEEREAFTRANHLNKLAEKEETGMAMRIRVGQSMNMGSDFDVFAHITNNTAEEYVCRLLLCARTVSYNGILGPECGTKYLLNLNLEPFSEKSVPLCILYEKYRDCLTESNLIKVRALLVEPVINSYLLAERDLYLENPEIKIRILGEPKQKRKLVAEVSLQNPLPVALEGCTFTVEGAGLTEEQKTVEIPDPVEAGEEVKVRMDLLPLHMGLHKLVVNFESDKLKAVKGFRNVIIGPA
Consider B1, for which the binding result is “binds”.
